# No constants are given. Whether binding was seen depends on the method and setting. Binding seen in cells or lysates may run through a third protein. These calls come from enrichment with a bait or labelling near it, and not all partners need be listed. For some of these results: Tags and fused reporters may be left off the sequences shown.
# Protein sequences, listed by entry. Tags and fused reporters are not part of them. Lines headed by an entry give the natural chain unless they say otherwise; changes in a name come on top.
# UniProt Q94KE2: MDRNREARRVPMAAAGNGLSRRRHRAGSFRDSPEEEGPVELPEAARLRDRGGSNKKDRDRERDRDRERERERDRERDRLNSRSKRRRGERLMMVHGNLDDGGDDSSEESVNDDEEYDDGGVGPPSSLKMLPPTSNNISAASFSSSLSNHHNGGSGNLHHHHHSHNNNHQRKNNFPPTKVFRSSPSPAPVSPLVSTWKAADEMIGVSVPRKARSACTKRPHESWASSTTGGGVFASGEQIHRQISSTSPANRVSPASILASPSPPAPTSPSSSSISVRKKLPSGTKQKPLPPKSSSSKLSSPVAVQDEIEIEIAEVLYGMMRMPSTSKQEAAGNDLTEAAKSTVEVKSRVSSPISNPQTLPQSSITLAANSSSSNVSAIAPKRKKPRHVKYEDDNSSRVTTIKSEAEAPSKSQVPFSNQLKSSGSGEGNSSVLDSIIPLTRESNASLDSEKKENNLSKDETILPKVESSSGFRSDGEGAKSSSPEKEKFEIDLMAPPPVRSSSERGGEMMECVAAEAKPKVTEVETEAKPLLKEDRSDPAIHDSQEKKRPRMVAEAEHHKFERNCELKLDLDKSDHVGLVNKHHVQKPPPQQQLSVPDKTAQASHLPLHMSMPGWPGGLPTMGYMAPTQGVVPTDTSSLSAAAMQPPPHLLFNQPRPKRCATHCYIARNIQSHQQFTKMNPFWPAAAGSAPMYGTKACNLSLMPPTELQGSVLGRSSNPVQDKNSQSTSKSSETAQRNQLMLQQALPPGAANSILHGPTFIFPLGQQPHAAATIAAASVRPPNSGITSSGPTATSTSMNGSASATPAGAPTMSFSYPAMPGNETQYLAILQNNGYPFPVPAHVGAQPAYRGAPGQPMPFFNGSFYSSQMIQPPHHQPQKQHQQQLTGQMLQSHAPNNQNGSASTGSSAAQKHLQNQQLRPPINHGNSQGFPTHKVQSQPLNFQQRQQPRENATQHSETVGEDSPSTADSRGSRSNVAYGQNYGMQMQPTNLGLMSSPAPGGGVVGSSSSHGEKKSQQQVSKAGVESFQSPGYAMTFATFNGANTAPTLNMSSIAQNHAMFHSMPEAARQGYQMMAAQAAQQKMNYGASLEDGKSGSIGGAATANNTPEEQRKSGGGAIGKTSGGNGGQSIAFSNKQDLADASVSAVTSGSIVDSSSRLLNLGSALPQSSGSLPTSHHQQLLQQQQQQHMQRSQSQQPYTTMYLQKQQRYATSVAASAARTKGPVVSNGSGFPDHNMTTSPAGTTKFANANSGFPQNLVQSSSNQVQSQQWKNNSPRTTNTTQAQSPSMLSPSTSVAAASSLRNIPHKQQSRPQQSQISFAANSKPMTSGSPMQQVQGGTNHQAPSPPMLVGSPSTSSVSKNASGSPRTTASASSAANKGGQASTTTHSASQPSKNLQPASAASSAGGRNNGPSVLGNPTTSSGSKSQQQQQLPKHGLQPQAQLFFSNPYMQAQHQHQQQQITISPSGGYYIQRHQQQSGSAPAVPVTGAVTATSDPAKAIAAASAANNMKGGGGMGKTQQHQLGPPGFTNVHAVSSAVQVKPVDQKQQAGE
# UniProt Q9FK52: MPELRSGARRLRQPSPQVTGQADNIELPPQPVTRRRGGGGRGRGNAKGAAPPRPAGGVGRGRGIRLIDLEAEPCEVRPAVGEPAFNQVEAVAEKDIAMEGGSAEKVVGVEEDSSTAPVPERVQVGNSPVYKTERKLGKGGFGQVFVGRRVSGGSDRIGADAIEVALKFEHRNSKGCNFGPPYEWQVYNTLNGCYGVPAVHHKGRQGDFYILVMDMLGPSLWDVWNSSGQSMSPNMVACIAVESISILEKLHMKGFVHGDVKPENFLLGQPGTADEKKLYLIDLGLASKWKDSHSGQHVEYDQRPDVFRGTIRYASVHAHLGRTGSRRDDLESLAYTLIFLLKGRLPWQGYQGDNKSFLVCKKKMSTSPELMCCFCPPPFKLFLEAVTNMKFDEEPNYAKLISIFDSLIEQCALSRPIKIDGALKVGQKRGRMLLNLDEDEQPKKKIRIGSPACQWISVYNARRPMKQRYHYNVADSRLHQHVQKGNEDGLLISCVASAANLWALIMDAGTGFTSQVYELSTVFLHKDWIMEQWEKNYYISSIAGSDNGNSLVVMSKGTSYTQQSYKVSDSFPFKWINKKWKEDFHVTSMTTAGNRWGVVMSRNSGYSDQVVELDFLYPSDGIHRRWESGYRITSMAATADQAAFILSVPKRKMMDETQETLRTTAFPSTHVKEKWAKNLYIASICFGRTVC
# UniProt Q9SQR8: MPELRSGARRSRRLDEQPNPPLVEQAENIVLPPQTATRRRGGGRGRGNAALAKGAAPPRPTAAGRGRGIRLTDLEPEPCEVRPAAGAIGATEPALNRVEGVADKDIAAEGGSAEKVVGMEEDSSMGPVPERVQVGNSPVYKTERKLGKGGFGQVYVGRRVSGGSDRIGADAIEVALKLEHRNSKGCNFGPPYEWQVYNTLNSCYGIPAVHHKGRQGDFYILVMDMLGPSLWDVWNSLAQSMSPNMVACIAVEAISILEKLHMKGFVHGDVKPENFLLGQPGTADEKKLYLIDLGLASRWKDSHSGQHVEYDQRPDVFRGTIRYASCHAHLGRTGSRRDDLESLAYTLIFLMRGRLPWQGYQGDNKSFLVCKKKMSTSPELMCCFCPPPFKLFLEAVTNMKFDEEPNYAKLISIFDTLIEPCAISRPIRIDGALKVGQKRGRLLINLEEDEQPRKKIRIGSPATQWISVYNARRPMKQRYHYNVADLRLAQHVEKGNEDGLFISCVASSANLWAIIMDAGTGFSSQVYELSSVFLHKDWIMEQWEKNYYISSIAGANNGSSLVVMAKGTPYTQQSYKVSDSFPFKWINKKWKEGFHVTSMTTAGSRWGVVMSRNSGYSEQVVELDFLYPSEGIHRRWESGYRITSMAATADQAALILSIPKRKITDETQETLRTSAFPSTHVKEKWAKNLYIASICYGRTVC
# UniProt Q9LID3: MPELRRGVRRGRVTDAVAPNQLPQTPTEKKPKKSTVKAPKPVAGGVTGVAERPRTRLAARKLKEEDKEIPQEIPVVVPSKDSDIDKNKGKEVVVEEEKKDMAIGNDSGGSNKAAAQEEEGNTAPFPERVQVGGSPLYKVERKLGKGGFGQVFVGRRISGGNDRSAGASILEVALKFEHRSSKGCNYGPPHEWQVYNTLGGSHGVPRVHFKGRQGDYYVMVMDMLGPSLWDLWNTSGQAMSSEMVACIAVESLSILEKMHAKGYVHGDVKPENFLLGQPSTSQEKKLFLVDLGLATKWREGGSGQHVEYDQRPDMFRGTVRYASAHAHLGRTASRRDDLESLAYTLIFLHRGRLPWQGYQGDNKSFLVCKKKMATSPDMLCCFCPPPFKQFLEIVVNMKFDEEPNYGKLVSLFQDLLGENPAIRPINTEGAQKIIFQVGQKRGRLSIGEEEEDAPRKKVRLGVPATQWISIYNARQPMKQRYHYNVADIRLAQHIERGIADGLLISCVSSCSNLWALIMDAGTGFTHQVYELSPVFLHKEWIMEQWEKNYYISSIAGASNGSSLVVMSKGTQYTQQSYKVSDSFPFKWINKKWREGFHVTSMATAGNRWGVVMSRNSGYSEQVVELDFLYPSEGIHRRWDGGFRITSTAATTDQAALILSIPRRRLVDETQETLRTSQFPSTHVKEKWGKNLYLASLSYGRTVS
# UniProt Q9FIX7: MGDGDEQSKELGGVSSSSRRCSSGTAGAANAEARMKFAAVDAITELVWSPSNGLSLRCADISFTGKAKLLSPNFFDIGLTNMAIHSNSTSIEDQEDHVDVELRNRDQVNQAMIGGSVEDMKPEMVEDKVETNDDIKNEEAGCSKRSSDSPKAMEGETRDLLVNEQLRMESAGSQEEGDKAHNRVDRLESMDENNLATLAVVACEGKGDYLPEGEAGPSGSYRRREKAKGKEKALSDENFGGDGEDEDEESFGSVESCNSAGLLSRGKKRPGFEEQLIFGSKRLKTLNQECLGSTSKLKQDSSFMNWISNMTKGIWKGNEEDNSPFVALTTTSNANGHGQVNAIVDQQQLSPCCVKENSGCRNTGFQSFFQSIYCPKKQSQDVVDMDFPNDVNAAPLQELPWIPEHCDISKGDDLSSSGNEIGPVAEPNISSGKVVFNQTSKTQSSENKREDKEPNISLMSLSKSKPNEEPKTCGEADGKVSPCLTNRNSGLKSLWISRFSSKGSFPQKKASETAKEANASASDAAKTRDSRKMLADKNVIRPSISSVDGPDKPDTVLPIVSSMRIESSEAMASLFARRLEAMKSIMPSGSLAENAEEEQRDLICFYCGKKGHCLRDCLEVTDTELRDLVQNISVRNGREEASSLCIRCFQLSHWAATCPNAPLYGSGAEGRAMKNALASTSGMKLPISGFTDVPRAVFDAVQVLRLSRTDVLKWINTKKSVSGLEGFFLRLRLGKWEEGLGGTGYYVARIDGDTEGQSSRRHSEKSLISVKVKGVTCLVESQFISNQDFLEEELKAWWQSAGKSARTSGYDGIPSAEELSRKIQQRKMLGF
# UniProt P14713: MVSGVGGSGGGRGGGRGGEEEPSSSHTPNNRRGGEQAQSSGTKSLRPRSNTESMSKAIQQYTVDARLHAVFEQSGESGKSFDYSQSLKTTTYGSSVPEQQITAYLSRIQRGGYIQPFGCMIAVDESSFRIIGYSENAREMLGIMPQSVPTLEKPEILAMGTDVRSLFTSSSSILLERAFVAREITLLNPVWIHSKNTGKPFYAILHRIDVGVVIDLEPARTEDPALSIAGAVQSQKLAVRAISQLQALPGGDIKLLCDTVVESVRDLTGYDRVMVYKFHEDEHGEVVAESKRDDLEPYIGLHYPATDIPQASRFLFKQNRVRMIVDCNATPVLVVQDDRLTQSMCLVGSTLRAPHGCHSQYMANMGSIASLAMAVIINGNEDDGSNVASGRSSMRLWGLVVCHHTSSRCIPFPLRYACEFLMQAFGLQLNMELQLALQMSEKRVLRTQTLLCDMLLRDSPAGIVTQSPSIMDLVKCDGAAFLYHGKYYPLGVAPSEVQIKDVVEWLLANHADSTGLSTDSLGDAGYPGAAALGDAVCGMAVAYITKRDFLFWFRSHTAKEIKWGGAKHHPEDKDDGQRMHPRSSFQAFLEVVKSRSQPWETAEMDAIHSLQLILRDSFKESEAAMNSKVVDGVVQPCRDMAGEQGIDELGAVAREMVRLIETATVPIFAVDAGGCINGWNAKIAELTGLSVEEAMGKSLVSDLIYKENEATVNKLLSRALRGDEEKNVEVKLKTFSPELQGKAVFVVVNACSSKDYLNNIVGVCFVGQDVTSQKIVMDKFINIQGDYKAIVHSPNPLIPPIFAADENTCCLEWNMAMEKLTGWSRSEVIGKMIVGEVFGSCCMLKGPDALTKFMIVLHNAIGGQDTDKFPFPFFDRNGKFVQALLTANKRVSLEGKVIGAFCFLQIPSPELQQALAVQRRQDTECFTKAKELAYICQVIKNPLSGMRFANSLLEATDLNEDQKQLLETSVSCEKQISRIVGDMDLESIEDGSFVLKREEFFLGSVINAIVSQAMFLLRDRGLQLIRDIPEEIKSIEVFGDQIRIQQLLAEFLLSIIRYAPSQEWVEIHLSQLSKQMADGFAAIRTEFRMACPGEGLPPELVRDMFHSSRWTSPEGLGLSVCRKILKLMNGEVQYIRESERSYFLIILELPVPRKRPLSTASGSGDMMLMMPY
# T1: AtELF3-HFC (Arabidopsis EARLY FLOWERING 3 with C-terminal His6-3xFlag tag) (Arabidopsis thaliana) (UniProt O82804)
# T1 sequence: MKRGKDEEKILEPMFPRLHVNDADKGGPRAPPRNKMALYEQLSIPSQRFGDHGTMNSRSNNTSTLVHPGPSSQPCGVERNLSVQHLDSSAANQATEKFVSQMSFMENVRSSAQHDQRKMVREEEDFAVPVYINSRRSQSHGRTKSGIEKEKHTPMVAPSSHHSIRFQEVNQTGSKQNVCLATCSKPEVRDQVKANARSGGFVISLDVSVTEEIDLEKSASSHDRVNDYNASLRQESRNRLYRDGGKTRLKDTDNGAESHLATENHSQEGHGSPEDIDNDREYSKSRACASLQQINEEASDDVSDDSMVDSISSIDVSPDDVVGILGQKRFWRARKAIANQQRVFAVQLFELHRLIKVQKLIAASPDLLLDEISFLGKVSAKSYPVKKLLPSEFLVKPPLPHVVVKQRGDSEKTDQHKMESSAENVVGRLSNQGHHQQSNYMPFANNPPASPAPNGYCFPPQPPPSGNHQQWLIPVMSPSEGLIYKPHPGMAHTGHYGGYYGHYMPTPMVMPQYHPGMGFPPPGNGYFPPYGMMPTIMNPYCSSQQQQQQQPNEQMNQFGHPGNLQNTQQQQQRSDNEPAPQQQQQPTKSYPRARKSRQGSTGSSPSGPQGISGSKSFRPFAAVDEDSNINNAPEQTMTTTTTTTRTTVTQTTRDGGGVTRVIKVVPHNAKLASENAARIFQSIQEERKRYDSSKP
# Biological target: T1, AtELF3-HFC (Arabidopsis EARLY FLOWERING 3 with C-terminal His6-3xFlag tag) (Arabidopsis thaliana)
# Assay: affinity purification with mass spectrometry; tandem affinity purification by the FLAG and His epitopes of ELF3-HFC from extracts of 10-day-old transgenic Arabidopsis seedlings (elf3-2 background), 12L:12D, harvested at ZT12; two replicates for each line
row,binding,Molecule
1,binds,MLK3
2,binds,TIC (from UniProt Q94KE2 1-1550)
3,binds,MUT9-LIKE KINASE1 (from UniProt Q9FK52)
4,binds,MLK2 (from UniProt Q9SQR8)
5,binds,MLK4 (from UniProt Q9LID3)
6,binds,TZP (from UniProt Q9FIX7)
7,binds,phytochrome B (from UniProt P14713 1-1172)

# Biological target: BdELF3-HFC (Brachypodium distachyon ELF3 with C-terminal His6-3xFlag tag) (Brachypodium distachyon)
# Assay: as above
row,binding,Molecule
1,binds,"ELF4-L4 (protein, UniProt Q570U6 1-114) MEGDVLSGFGDRHNMDGKLLQSFQKSFVDVQDILDQNRLLINEINQNHESKQPDNLGRNVGLIKELNNNIRRVASLYGDLSHSFARSVDASSEGESSGTLKSDGKANQKRFRSG"
2,binds,"SPA1 (protein, UniProt Q9SYX2 1-1029) MPVMERVAEETVATNNIQLKARVDDVPCNKLDARHNDMVIQSETANSDCPGSSAHRNVDLTKPPPPEEAAGAKLSVEELTLGNYRIVQGSNNTNVDSPRAGKFEHLYRLARGSAFRAGDGDLDSQPRDMDQMLSRIRQQLAGAPSERQNLKPFMSRRSDQNLEAFSERLRAAGENSIMNAPALISEGVQMKTPVSSSNFSQLLLKRAMKGKGVVGKNQETPPEFVSDQDLGSKEKKLDISKSPTPHDVLPLKSSPKGNGMVSHGDGNHSKSSIGISLREFLRSSYAKREKRHGLCLFRQLVELVDSAHSKRLFLLDLRPSLFTLVPSKKLRYIGNFGKNDLESDVDEDLNRRRPVVEESSSGGRDSKKRKMDLHLNSPGNQLQATSTGRPFKRKSPVIDLNMVDARNPDSCELQQQDYIKNLSVSSVSRKQSMSTWLEEQWYTCPEEINGEDIGEKSNIYALGVLLFELLCHCESGEMHAAMMADLRHRILPPTFLSKYPKEAGFCLWLLHPEPSSRPSARDILKSELICEDDSVKSTAAAEEISELLLHFLSSLEVQKKKKASKLLQDIQTLEDDIKEAERRYSSNVSLVRSHGAIEKRVQSSPLDEHCTTSSALFVPTANTDRLMSNIRQLEDAYFFMRSQINLSSSAATARSDKTLKDRDRCSENQNENQDMSTKGKSSDQLEVFFEGLCKFARYSKFETCGTIRSGDLLNSASVVCSLSFDPDEEHIAAAGISKKIKIFDFNAFMNESVGVHYPLVEMVNKSKLSCVCWNSYIKNYLASTDYDGVVQIWDAGTGQGFSQYTEHQKRAWSVDFSPSDPTKFVSGSDDCSVKLWSINEKRSLGTIWSPANVCCVQFSSYSNHLLAFGSADYKVYCYDLRYVKTPWCTLAGHEKAVSYVKFMDSETIVSASTDNSLKLWNLNKTNSSGLSPGACSLTYKGHTNQKNFVGLSVLDGYIACGSETNEVYSYYKSLPMPMTSYKFGSVDPISGNEYFDDNGQFVSSVCWRKKSNMLVAANSTGNMKLLKLV"

# Biological target: SvELF3-HFC (Setaria viridis ELF3a with C-terminal His6-3xFlag tag) (Setaria viridis)
# Assay: as above
row,binding,Molecule
1,binds,"SPA1 (protein, UniProt Q9SYX2 1-1029) MPVMERVAEETVATNNIQLKARVDDVPCNKLDARHNDMVIQSETANSDCPGSSAHRNVDLTKPPPPEEAAGAKLSVEELTLGNYRIVQGSNNTNVDSPRAGKFEHLYRLARGSAFRAGDGDLDSQPRDMDQMLSRIRQQLAGAPSERQNLKPFMSRRSDQNLEAFSERLRAAGENSIMNAPALISEGVQMKTPVSSSNFSQLLLKRAMKGKGVVGKNQETPPEFVSDQDLGSKEKKLDISKSPTPHDVLPLKSSPKGNGMVSHGDGNHSKSSIGISLREFLRSSYAKREKRHGLCLFRQLVELVDSAHSKRLFLLDLRPSLFTLVPSKKLRYIGNFGKNDLESDVDEDLNRRRPVVEESSSGGRDSKKRKMDLHLNSPGNQLQATSTGRPFKRKSPVIDLNMVDARNPDSCELQQQDYIKNLSVSSVSRKQSMSTWLEEQWYTCPEEINGEDIGEKSNIYALGVLLFELLCHCESGEMHAAMMADLRHRILPPTFLSKYPKEAGFCLWLLHPEPSSRPSARDILKSELICEDDSVKSTAAAEEISELLLHFLSSLEVQKKKKASKLLQDIQTLEDDIKEAERRYSSNVSLVRSHGAIEKRVQSSPLDEHCTTSSALFVPTANTDRLMSNIRQLEDAYFFMRSQINLSSSAATARSDKTLKDRDRCSENQNENQDMSTKGKSSDQLEVFFEGLCKFARYSKFETCGTIRSGDLLNSASVVCSLSFDPDEEHIAAAGISKKIKIFDFNAFMNESVGVHYPLVEMVNKSKLSCVCWNSYIKNYLASTDYDGVVQIWDAGTGQGFSQYTEHQKRAWSVDFSPSDPTKFVSGSDDCSVKLWSINEKRSLGTIWSPANVCCVQFSSYSNHLLAFGSADYKVYCYDLRYVKTPWCTLAGHEKAVSYVKFMDSETIVSASTDNSLKLWNLNKTNSSGLSPGACSLTYKGHTNQKNFVGLSVLDGYIACGSETNEVYSYYKSLPMPMTSYKFGSVDPISGNEYFDDNGQFVSSVCWRKKSNMLVAANSTGNMKLLKLV"
